## Results of single-concentration screens

Sequences of proteins named here, by UniProt entry; tags and fusion partners are left off.
UniProt P9WNZ1, whole entry: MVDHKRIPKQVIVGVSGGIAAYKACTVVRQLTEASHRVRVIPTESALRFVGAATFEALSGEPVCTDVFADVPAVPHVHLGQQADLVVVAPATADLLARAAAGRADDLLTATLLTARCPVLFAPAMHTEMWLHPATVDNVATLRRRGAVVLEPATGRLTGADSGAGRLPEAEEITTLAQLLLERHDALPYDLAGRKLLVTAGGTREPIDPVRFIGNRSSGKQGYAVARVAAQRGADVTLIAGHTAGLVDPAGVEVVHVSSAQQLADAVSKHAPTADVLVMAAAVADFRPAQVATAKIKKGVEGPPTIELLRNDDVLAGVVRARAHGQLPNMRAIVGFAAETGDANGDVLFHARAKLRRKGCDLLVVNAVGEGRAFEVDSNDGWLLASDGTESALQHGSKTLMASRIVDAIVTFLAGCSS

A: 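Assay of Toxoplasma gondii numbers, read through their beta-galactosidase reporter with a colour substrate. Tested at 10 µM. Higher reads as fewer parasites (inferred from which compounds were picked for retests). About 67,000 compounds were tested under these conditions; 0.38% (about 260) showed 50% or more at least once.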
B: 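Coenzyme A biosynthesis protein CoaBC, Mycobacterium tuberculosis (UniProt P9WNZ1). Enzyme assay of CoaBC with a phosphate dye (Biomol Green) read at 650 nm. Tested at 30 µM. Direction is inferred from only a few compounds that gave an IC50; most scored high, so higher reads as stronger inhibition. Most strong results did not repeat in a second test. Size under these conditions: about 67,000 compounds, about 40 of them at 50% or above in at least one test.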

The filed quantity is “Percent Effect” (%).
The record does not define 0% and 100%; most values in the screen are far below 50% and negative numbers occur (in some assays of this library far below -100).
Compounds were drawn at random from those tested, without regard to their results.
A dash means the value is not listed here; it may have been measured.

structure | A | B
COc1ccc(-n2ccc(CNCc3ccc(OC)c(O)c3)n2)cc1 | 1.554% | -30.56%
CN(C(=O)Cc1coc(-c2cccs2)n1)C1(C#N)CCC1 | 0.5394% | -
Cc1ccc(OCC2CCCN(c3cc(C(N)=O)ccn3)C2)cc1 (stereo unspecified) | -38.53% | 3.163%
O=C(c1ccoc1)N1CCO[C@]2(CCC[C@@H]2COCc2ccncc2)C1 | -1.972% | 7.492%
Cc1ccc(C)c2c(O)cc(CNCC(N)=O)nc12 | 11.45% | 2.457%
CC(=O)N1CCN(CC(C)(O)c2cccc(C(F)(F)F)c2)CC1 (stereo unspecified) | -4.433% | 3.345%
CS(=O)(=O)NC1CCN(CCc2ccccc2)CC1 | 0.1827% | 8.343%
O=C(C1CCOC1)N1CCN(CC(F)(F)F)c2ccccc21 (stereo unspecified) | 10.87% | 1.942%
CC(=O)N1CCCC(Cc2cncc(Br)c2)C1 (stereo unspecified) | 10.97% | 1.937%
Cc1ccc(C(C)N(C)C(=O)c2ccc(=O)n(C)c2)s1 (stereo unspecified) | 0.459% | 2.93%
CCOC1CCCN(C(=O)c2cnc3c(cnn3C3CCCC3)c2)C1 (stereo unspecified) | - | 6.427%
c1cc(CNCC2Cn3nncc3CO2)cs1 (stereo unspecified) | 15.78% | 10.45%
CCC(CC)(CCO)CNC(=O)c1ccon1 | -0.306% | 4.911%
O=C(O)C(F)(F)F.O=C(O)C(F)(F)F.[H][C@@]12C[C@H](C(=O)Nc3cccnc3)CN(Cc3ccc(F)cc3)[C@]1([H])CCO2 | 1.962% | -
O=C(O)C(F)(F)F.[H][C@@]12CN(CCc3ccccc3)C[C@H](C(=O)N3CCCO3)[C@]1([H])CCO2 | -1.175% | -
CCS(=O)(=O)c1ncc(CN2CCSCC2)n1CCc1ccccc1 | -7.076% | -0.9926%
O=C(O)C(F)(F)F.O=C(O)C(F)(F)F.c1ccc(CN2CCC3(CC2)CCN(c2ccccn2)C3)nc1 | -20.7% | -
CC(C)(C)S(=O)(=O)CCNC1CSCCc2ccccc21 (stereo unspecified) | 1.947% | 1.22%
COc1nccnc1-c1cc(NC2CCCC2)nc2[nH]ccc12 | -7.61% | 0.4963%
CCCc1nc(CN2CCN(CC(O)c3ccccc3)CC2)no1 (stereo unspecified) | -0.2812% | 5.483%
CN(C)C(=O)c1n[nH]c2c1CN(CC1CCC1)C2.O=C(O)C(F)(F)F.O=C(O)C(F)(F)F | 0.06022% | -
CCCC(=O)N1CCC(O)(Cn2c(CC)nc3ccccc3c2=O)CC1 | - | -5.833%
NS(=O)(=O)N1CCC(CSc2ccccc2)C1 (stereo unspecified) | 0.9077% | -
Cc1nc(NC2CCCC2)cc(C2CCN2c2ncccn2)n1 (stereo unspecified) | -2.073% | 0.2427%
CC(C)(C)NC(=O)Cn1nc(C2CC2)cc(C(F)(F)F)c1=O | 2.394% | -0.8403%
CC1CCN(C(=O)c2cn(-c3cc(N4CCSCC4)ncn3)cn2)CC1 | -14.07% | 4.12%
O=C1NCCCCC1Sc1ccc(F)cc1F (stereo unspecified) | - | -0.1215%
COc1ccc(-c2nnc(SC(C)C(=O)NCC(C)C)[nH]2)c(OC)c1 (stereo unspecified) | 5.078% | 4.723%
O=C(O)C(F)(F)F.O=C(O)C(F)(F)F.O=S(=O)(C1CC1)N1CCC2(CC1)CN(Cc1ccccn1)CCO2 | 20.6% | -
COc1c(CNCc2cccc(Cn3ccnc3C)c2)c(C)nn1C | - | 9.43%
Cc1nc(C)c(CC(=O)N2CCCN(CC3CC3)C(C(C)C)C2)c(=O)[nH]1 (stereo unspecified) | -4.893% | -1.392%
O=C(c1ccccc1F)N1CCN(c2ccc(-n3cccc3)nn2)CC1 | 7.746% | 12.18%
O=C(NCc1ccccc1)C1=NOC2(CCNC2)C1 (stereo unspecified) | - | -10.92%
O=C(C1CC1)N1CC[C@H](c2nnc(Cc3c[nH]c4ccccc34)o2)C1 | 6.321% | 13.16%
O=C(O)C(F)(F)F.[H][C@@]12CCN(S(=O)(=O)c3cccnc3)[C@]1([H])CC[C@@H](c1nc(C)no1)O2 | -2.82% | -
Cc1nc2cc(=O)[nH]n2c(C)c1CC(=O)Nc1cnn(C(C)(C)C)c1 | -1.529% | 0.3654%
O=C(c1ccncc1)N1CCCn2nnc(Cn3cccn3)c2C1 | 12.74% | 1.833%
COc1ccc(C(C)N2CCC(NS(C)(=O)=O)CC2)cc1Cl (stereo unspecified) | -2.835% | -1.2%
CC(C)n1ncc2c1NC(=O)CC21C(=O)Nc2c(Cl)cc(Br)cc21 (stereo unspecified) | 3.332% | -0.2525%
c1cc(CN2CCC(c3nnc4n3CCCCC4)CC2)c2c(c1)OCO2 | -6.43% | 8.252%
Cc1noc(C)c1CN1C[C@H](OCc2ccncc2)[C@H]2OCCC[C@H]21 | - | -2.005%

4 of the entries, repeated:

structure	A	B
COc1ccc(-n2ccc(CNCc3ccc(OC)c(O)c3)n2)cc1	1.554%	-30.56%
CCCc1nc(CN2CCN(CC(O)c3ccccc3)CC2)no1 (stereo unspecified)	-0.2812%	5.483%
O=C(NCc1ccccc1)C1=NOC2(CCNC2)C1 (stereo unspecified)	-	-10.92%
O=C(c1ccoc1)N1CCO[C@]2(CCC[C@@H]2COCc2ccncc2)C1	-1.972%	7.492%

Data taken from ChEMBL document CHEMBL3988442, “University of Dundee, Small-Polar-MMV Screening Library” (2021).